# Reference: patent publication US8630703B2, “Treatment utilizing hydrophobic weak bases chemotherapeutic agents and illumination” (Technion Research & Development Foundation Limited, priority 2011, dated 2014)
# How the values were obtained:
# A549/K1.5 cells = assay: Live cell fluorescent imaging (lysosomal localization and photodestruction); assay type: cell-based, Human
# Description: Lysosomes and mitochondria were stained by incubating the cells 100 nM LysoTracker® Red or 100 nM MitoTracker® Red, respectively, for 1 hour. For subcellular localization of C-1330, cells were also stained with 10 μM C-1330 for 30 minutes.
# Nuclear staining was performed prior to fluorescence imaging by replacing the growth medium with medium containing 2 μg/ml Hoechst 33342, followed by incubation for 10 minutes. Prior to nuclear staining, A549/K1.5 cells were incubated for 1 hour with 10 μM fumitremorgin C (FTC) to prevent efflux of Hoechst 33342 by ABCG2.
# Live cell fluorescent imaging was performed using an Axiovert 200 inverted fluorescence microscope (Carl Zeiss) equipped with a digital camera. […] Light intensity was maintained at 12.5% of the maximum. The magnification used was ×630.
# Cells were pre-incubated with 10 mM ammonium chloride for 30 minutes or with 1 μM bafilomycin A1 for 60 minutes, prior to being incubated with 10 μM C-1330 for 30 minutes as described hereinabove. Ammonium chloride and bafilomycin A1 remained present during the incubation with C-1330.
# A549/K1.5 cells were incubated with 10 μM doxorubicin for 30 minutes, and then observed and illuminated (at 470 nm) by live cell fluorescent imaging as described in the Materials and Methods section. Upon illumination, the cells were photographed every second, in order to observe changes in the cells over time.
# [1] = Superoxide detection by EPR spin trapping with DMPO; assay type: physicochemical; conditions: DMSO/H2O (9:1); 1 mM NADH; 400-490 nm light
# [2] = Singlet oxygen luminescence detection; assay type: physicochemical; conditions: 355 nm pulsed laser; acetonitrile and DMSO solutions; 1270 nm
SMILES,"subcellular localization before illumination (A549/K1.5 cells; A549/K1.5, 10 μM, 30 minutes)",EPR signal of DMPO-superoxide spin adduct upon irradiation [1],singlet oxygen luminescence upon photoexcitation [2],"lysosomal accumulation on co-treatment with ABCG2 inhibitor (A549/K1.5 cells; MDR cells, 20 μM C-1311 + 10 μM fumitremorgin C, 2 hours)"
"COc1cccc2c1C(=O)c1c(O)c3c(c(O)c1C2=O)C[C@@](O)(C(=O)CO)C[C@@H]3O[C@H]1C[C@H](N)[C@H](O)[C@H](C)O1 [doxorubicin, reference compound]",accumulates in lysosomes,–,–,–
COc1ccc2c(c1)c(=O)c1c(NCCCN(C)C)ccc3nc(C)n2c31 [C-1375],–,increased overtime,measurable luminescence which was linearly correlated to the intensity of irradiation,–
CCN(CC)CCNc1ccc2ncn3c4ccc(O)cc4c(=O)c1c23 [C-1311],–,–,–,lysosomal accumulation of C-1311
CCN(CC)CCCNc1ccc2nc(C)n3c4ccc(OC)cc4c(=O)c1c23 [C-1379],–,increased overtime,measurable luminescence which was linearly correlated to the intensity of irradiation,–
